Reference: PMC6484409
These are yes or no findings as the source states them, for the method shown. Binding seen in cells or lysates may run through a third protein. Some entries that bind do so weakly or less than the wild type.

By UniProt entry, the sequences of proteins in these tests, tags left out. Where a name states a change or a piece, a line headed by the entry shows the natural chain unless it says otherwise. Chains listed by the source or under a name are the forms on record and can include a tag or linker. Residues count along the entry.
Flag-S-tagged mouse ATG16L1 wild type (Q8C0J2-3, form named): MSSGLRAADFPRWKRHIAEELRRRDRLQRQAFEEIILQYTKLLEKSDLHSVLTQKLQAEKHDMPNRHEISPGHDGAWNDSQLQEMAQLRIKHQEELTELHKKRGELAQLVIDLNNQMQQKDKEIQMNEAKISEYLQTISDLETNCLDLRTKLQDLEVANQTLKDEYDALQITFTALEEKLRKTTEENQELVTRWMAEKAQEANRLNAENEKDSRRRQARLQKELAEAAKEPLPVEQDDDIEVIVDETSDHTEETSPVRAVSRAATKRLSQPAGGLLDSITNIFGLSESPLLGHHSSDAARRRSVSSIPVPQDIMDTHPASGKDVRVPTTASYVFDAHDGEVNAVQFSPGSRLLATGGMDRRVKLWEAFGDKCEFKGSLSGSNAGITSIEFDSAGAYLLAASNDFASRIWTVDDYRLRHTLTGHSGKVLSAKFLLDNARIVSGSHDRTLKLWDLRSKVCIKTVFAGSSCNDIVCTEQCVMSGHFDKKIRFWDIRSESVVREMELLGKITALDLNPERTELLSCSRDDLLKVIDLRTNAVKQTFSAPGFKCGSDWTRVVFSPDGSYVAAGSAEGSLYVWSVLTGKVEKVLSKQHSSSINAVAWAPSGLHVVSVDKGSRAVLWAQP
Flag-S-tagged mouse ATG16L1 with residues 182-205 deleted in the full-length protein (Q8C0J2-3, form named): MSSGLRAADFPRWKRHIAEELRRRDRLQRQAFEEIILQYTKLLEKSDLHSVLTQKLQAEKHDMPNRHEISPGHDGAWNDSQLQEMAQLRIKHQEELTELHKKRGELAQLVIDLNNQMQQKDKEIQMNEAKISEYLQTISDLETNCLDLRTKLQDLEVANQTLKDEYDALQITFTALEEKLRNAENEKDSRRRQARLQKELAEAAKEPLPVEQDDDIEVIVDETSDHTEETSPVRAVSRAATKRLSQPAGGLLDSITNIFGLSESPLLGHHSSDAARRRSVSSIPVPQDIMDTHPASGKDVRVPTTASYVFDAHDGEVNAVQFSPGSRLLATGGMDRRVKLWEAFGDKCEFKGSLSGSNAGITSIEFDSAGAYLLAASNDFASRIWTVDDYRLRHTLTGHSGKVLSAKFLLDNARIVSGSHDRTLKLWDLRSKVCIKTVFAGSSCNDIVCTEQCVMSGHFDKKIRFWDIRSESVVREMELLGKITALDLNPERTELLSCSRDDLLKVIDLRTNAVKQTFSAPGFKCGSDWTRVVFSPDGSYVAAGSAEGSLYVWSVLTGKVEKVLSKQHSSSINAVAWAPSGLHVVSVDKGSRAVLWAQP
Flag-S-tagged mouse ATG16L1 lipid binding-deficient mutant (I171D K179D R193D) (Q8C0J2-3, form named): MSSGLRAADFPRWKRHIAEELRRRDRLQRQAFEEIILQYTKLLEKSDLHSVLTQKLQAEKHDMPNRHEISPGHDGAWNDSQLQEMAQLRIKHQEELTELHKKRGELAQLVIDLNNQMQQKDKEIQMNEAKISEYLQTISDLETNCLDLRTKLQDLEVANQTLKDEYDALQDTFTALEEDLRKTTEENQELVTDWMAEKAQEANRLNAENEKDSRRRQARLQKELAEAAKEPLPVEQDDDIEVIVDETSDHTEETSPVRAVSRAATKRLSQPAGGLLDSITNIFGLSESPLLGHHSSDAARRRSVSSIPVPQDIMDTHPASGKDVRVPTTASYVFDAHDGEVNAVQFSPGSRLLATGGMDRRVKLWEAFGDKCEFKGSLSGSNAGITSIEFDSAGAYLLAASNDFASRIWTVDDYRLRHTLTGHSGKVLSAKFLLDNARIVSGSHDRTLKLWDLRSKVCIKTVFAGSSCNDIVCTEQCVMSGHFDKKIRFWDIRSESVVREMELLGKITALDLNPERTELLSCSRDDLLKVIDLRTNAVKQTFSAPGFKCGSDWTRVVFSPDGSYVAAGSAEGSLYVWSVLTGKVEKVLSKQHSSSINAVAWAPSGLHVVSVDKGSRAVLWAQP
UniProt Q8TDY2: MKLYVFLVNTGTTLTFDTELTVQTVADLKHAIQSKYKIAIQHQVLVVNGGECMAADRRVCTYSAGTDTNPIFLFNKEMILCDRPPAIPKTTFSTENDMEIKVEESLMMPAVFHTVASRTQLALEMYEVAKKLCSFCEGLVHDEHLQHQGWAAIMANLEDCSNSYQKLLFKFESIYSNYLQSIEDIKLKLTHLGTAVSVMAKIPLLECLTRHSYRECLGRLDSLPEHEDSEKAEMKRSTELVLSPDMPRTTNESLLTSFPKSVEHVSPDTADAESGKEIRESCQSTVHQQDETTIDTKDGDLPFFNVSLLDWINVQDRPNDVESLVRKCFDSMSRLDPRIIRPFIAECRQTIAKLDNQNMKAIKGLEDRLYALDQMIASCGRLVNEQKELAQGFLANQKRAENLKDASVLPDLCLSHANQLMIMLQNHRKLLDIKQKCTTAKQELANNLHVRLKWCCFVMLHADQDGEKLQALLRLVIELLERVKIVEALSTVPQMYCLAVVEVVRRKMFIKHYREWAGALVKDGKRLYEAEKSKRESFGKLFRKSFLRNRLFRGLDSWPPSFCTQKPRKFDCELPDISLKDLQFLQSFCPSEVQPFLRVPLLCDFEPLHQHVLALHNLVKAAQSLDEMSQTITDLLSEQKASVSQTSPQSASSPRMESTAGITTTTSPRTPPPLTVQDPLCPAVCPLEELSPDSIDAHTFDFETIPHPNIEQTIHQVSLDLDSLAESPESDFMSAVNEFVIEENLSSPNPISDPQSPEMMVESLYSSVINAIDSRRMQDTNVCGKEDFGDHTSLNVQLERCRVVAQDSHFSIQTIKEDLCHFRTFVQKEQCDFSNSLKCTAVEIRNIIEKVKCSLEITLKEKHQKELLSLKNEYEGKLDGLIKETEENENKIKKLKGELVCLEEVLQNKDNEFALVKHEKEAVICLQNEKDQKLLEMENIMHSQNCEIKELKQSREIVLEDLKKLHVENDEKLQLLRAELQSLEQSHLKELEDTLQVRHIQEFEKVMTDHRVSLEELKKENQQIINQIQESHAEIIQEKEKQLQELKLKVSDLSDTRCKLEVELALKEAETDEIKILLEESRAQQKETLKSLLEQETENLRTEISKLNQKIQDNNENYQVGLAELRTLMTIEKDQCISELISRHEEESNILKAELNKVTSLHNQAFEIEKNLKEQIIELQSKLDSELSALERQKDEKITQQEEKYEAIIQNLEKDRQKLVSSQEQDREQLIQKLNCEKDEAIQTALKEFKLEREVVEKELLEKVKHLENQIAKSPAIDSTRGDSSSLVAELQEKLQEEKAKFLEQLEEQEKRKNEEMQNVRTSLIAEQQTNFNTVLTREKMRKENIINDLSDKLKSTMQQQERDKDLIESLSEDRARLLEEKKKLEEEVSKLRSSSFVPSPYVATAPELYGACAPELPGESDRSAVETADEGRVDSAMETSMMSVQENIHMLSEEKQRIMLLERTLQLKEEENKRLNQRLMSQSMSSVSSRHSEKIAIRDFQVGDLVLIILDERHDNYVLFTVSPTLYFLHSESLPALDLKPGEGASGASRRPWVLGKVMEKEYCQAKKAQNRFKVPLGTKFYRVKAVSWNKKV

Experiments:
[1] = target: Flag-S-tagged mouse ATG16L1 wild type (mouse) (UniProt Q8C0J2); test: pull-down; homodimerisation assay: 293T cells co-transfected with ATG16L1-GFP and Flag-S-tagged ATG16L1 constructs; NP-40 buffer lysate; S tag pull-down on S-protein agarose at 4°C; immunoblot
[2] = target: Flag-S-tagged mouse ATG16L1 with residues 182-205 deleted in the full-length protein (mouse) (UniProt Q8C0J2); test: as above
[3] = target: Flag-S-tagged mouse ATG16L1 lipid binding-deficient mutant (I171D K179D R193D) (mouse) (UniProt Q8C0J2); test: as above
[4] = target: Flag-S-tagged mouse ATG16L1 wild type (mouse) (UniProt Q8C0J2); test: pull-down; 293T cells transiently transfected with Flag-S-tagged ATG16L1 constructs; lysis in NP-40 buffer (150 mM NaCl, 25 mM HEPES pH 7.5, 1.5 mM MgCl2, 1 mM EDTA, 1.5 mM β-ME, 0.5% NP-40); S tag pull-down on S-protein agarose 5 h or overnight at 4°C; bound proteins of the lysate (FIP200, ATG5, WIPI2) immunoblotted
[5] = target: Flag-S-tagged mouse ATG16L1 with residues 182-205 deleted in the full-length protein (mouse) (UniProt Q8C0J2); test: as above
[6] = target: Flag-S-tagged mouse ATG16L1 lipid binding-deficient mutant (I171D K179D R193D) (mouse) (UniProt Q8C0J2); test: as above
[7] = target: Flag-S-tagged mouse ATG16L1 wild type (mouse) (UniProt Q8C0J2); test: as above; remark: listed apart in the source
[8] = target: Flag-S-tagged mouse ATG16L1 lipid binding-deficient mutant (I171D K179D R193D) (mouse) (UniProt Q8C0J2); test: as above; remark: listed apart in the source

Molecule: C-terminal tagged mouse ATG16L1^WT-GFP (from UniProt Q8C0J2-3 1-623)
- binding [1]: binds
- binding [2]: binds
- binding [3]: binds

Molecule: FIP200 (from UniProt Q8TDY2 1-1594)
- binding [4]: binds
- binding [5]: binds
- binding [6]: binds

B1: WIPI2b (protein, UniProt Q9Y4P8-4 1-436)
chain: MNLASQSGEAGAGQLLFANFNQDNTSLAVGSKSGYKFFSLSSVDKLEQIYECTDTEDVCIVERLFSSSLVAIVSLKAPRKLKVCHFKKGTEICNYSYSNTILAVKLNRQRLIVCLEESLYIHNIRDMKVLHTIRETPPNPAGLCALSINNDNCYLAYPGSATIGEVQVFDTINLRAANMIPAHDSPLAALAFDASGTKLATASEKGTVIRVFSIPEGQKLFEFRRGVKRCVSICSLAFSMDGMFLSASSNTETVHIFKLETVKEKPPEEPTTWTGYFGKVLMASTSYLPSQVTEMFNQGRAFATVRLPFCGHKNICSLATIQKIPRLLVGAADGYLYMYNLDPQEGGECALMKQHRLDGSLETTNEILDSASHDCPLVTQTYGAAAGKGTYVPSSPTRLAYTDDLGAVGGACLEDEASALRLDEDSEHPPMILRTD
- binding [7]: binds
- binding [8]: binds
